# From the supplement of paper PMC8728848
# This is one part of the list.
# B1: FGF1 (Homo sapiens), P05230 (protein)
# chain: MAEGEITTFTALTEKFNLPPGNYKKPKLLYSNGGHFLRILPDGTVDGTRDRSDQHIQLQLSAESVGEVYIKSTETGQYLAMTDGLLYGSQTPNEECLFLERLEENHYNTYISKHAEKNWFVGLKKNGSCKRGPRTHYGQAILFLPLPASSED
# Experiments:
# Experiment in all cases: glycan array binding signal (z-score within array); higher = stronger binding
# Conditions in all cases: glycan notation: IUPAC condensed, linker removed
# [1] = target: Gal3S(b1-3)[Fuc(a1-4)]GlcNAc
# Summary of the method: (§1)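 Glycan array data came from 3228 arrays in the Consortium for Functional Glycomics database, and only arrays with an available protein sequence were kept. Glycan names were put into IUPAC-condensed notation, and columns mapping to the same glycan were averaged. The binding signal is a within-array Z-score, averaged across arrays of one protein sequence run at different concentrations or buffers and across linkers. A negative Z-score can be read as non-binding.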
# Gal3S(b1-4)Glc = target: Gal3S(b1-4)Glc
# Summary of the method: as §1
# Gal3S(b1-4)Glc6S = target: Gal3S(b1-4)Glc6S
# Summary of the method: as §1
# Gal3S(b1-4)GlcNAc = target: Gal3S(b1-4)GlcNAc
# Summary of the method: as §1
# [2] = target: Gal3S(b1-4)[Fuc(a1-3)]Glc6S
# Summary of the method: as §1
# [3] = target: Gal3S(b1-4)[Fuc(a1-3)]GlcNAc
# Summary of the method: as §1
# [4] = target: Gal3S(b1-4)[Fuc(a1-3)]GlcNAc6S
# Summary of the method: as §1
# Gal3S4S(b1-4)GlcNAc = target: Gal3S4S(b1-4)GlcNAc
# Summary of the method: as §1
# Gal3S6S(b1-4)GlcNAc = target: Gal3S6S(b1-4)GlcNAc
# Summary of the method: as §1
# Gal3S6S(b1-4)GlcNAc6S = target: Gal3S6S(b1-4)GlcNAc6S
# Summary of the method: as §1
# Gal4S(b1-4)GlcNAc = target: Gal4S(b1-4)GlcNAc
# Summary of the method: as §1
# Gal4S6S(b1-4)GlcNAc = target: Gal4S6S(b1-4)GlcNAc
# Summary of the method: as §1
# Gal6P(b1-4)GlcNAc = target: Gal6P(b1-4)GlcNAc
# Summary of the method: as §1
# Gal6S(b1-3)GlcNAc = target: Gal6S(b1-3)GlcNAc
# Summary of the method: as §1
# Gal6S(b1-3)GlcNAc6S = target: Gal6S(b1-3)GlcNAc6S
# Summary of the method: as §1
# Gal6S(b1-4)Glc = target: Gal6S(b1-4)Glc
# Summary of the method: as §1
# Gal6S(b1-4)Glc6S = target: Gal6S(b1-4)Glc6S
# Summary of the method: as §1
# Gal6S(b1-4)GlcNAc = target: Gal6S(b1-4)GlcNAc
# Summary of the method: as §1
# Gal6S(b1-4)GlcNAc6S = target: Gal6S(b1-4)GlcNAc6S
# Summary of the method: as §1
# GalNAc(a1-3)Gal = target: GalNAc(a1-3)Gal
# Summary of the method: as §1
# GalNAc(a1-3)GalNAc = target: GalNAc(a1-3)GalNAc
# Summary of the method: as §1
# [5] = target: GalNAc(a1-3)GalNAc(b1-3)Gal(a1-4)Gal(b1-4)Glc
# Summary of the method: as §1
# [6] = target: GalNAc(a1-3)GalNAc(b1-3)Gal(a1-4)Gal(b1-4)GlcNAc
# Summary of the method: as §1
# GalNAc(b1-3)Gal = target: GalNAc(b1-3)Gal
# Summary of the method: as §1
# [7] = target: GalNAc(b1-3)Gal(a1-4)Gal(b1-4)GlcNAc
# Summary of the method: as §1
# [8] = target: GalNAc(b1-3)Gal(a1-4)Gal(b1-4)GlcNAc(b1-3)Gal(b1-4)Glc
# Summary of the method: as §1
# [9] = target: GalNAc(b1-3)Gal(a1-6)Gal(b1-4)Glc
# Summary of the method: as §1
# GalNAc(b1-3)GalNAc = target: GalNAc(b1-3)GalNAc
# Summary of the method: as §1
# GalNAc(b1-3)GlcNAc = target: GalNAc(b1-3)GlcNAc
# Summary of the method: as §1
# GalNAc(b1-4)Gal(b1-4)Glc = target: GalNAc(b1-4)Gal(b1-4)Glc
# Summary of the method: as §1
# GalNAc(b1-4)GlcNAc = target: GalNAc(b1-4)GlcNAc
# Summary of the method: as §1
# [10] = target: GalNAc(b1-4)GlcNAc(b1-2)Man
# Summary of the method: as §1
# [11] = target: GalNAc(b1-4)GlcNAc(b1-2)Man(a1-3)[GalNAc(b1-4)GlcNAc(b1-2)Man(a1-6)]Man(b1-4)GlcNAc(b1-4)GlcNAc
# Summary of the method: as §1
# [12] = target: GalNAc(b1-4)GlcNAc(b1-3)GalNAc(b1-4)GlcNAc
# Summary of the method: as §1
# GalNAc(b1-4)GlcNAc6S = target: GalNAc(b1-4)GlcNAc6S
# Summary of the method: as §1
# GalNAc(b1-6)GalNAc = target: GalNAc(b1-6)GalNAc
# Summary of the method: as §1
# GalNAc3S(b1-4)GlcNAc = target: GalNAc3S(b1-4)GlcNAc
# Summary of the method: as §1
# GalNAc3S(b1-4)GlcNAc3S = target: GalNAc3S(b1-4)GlcNAc3S
# Summary of the method: as §1
# [13] = target: GalNAc3S(b1-4)[Fuc(a1-3)]GlcNAc
# Summary of the method: as §1
# GalNAc4S6S(b1-4)GlcNAc = target: GalNAc4S6S(b1-4)GlcNAc
# Summary of the method: as §1
# GalNAc6S(b1-4)GlcNAc = target: GalNAc6S(b1-4)GlcNAc
# Summary of the method: as §1
# Glc(a1-4)Glc = target: Glc(a1-4)Glc
# Summary of the method: as §1
# [14] = target: Glc(a1-4)Glc(a1-4)Glc(a1-4)Glc
# Summary of the method: as §1
# Glc(a1-6)Glc(a1-6)Glc = target: Glc(a1-6)Glc(a1-6)Glc
# Summary of the method: as §1
# [15] = target: Glc(a1-6)Glc(a1-6)Glc(a1-6)Glc
# Summary of the method: as §1
binder,measurement,setting,value
B1,glycan array binding signal (z-score),[1],3.14
same,glycan array binding signal (z-score),Gal3S(b1-4)Glc,-0.046
same,glycan array binding signal (z-score),Gal3S(b1-4)Glc6S,0.556
same,glycan array binding signal (z-score),Gal3S(b1-4)GlcNAc,0.083
same,glycan array binding signal (z-score),[2],1.23
same,glycan array binding signal (z-score),[3],0.189
same,glycan array binding signal (z-score),[4],-0.05
same,glycan array binding signal (z-score),Gal3S4S(b1-4)GlcNAc,-0.536
same,glycan array binding signal (z-score),Gal3S6S(b1-4)GlcNAc,-0.115
same,glycan array binding signal (z-score),Gal3S6S(b1-4)GlcNAc6S,1.04
same,glycan array binding signal (z-score),Gal4S(b1-4)GlcNAc,-0.846
same,glycan array binding signal (z-score),Gal4S6S(b1-4)GlcNAc,-0.697
same,glycan array binding signal (z-score),Gal6P(b1-4)GlcNAc,-0.472
same,glycan array binding signal (z-score),Gal6S(b1-3)GlcNAc,1.05
same,glycan array binding signal (z-score),Gal6S(b1-3)GlcNAc6S,-0.611
same,glycan array binding signal (z-score),Gal6S(b1-4)Glc,-0.316
same,glycan array binding signal (z-score),Gal6S(b1-4)Glc6S,0.102
same,glycan array binding signal (z-score),Gal6S(b1-4)GlcNAc,0.73
same,glycan array binding signal (z-score),Gal6S(b1-4)GlcNAc6S,2.17
same,glycan array binding signal (z-score),GalNAc(a1-3)Gal,-0.833
same,glycan array binding signal (z-score),GalNAc(a1-3)GalNAc,-0.764
same,glycan array binding signal (z-score),[5],-0.775
same,glycan array binding signal (z-score),[6],-0.706
same,glycan array binding signal (z-score),GalNAc(b1-3)Gal,0.253
same,glycan array binding signal (z-score),[7],-0.019
same,glycan array binding signal (z-score),[8],-0.551
same,glycan array binding signal (z-score),[9],-0.998
same,glycan array binding signal (z-score),GalNAc(b1-3)GalNAc,-0.779
same,glycan array binding signal (z-score),GalNAc(b1-3)GlcNAc,-0.145
same,glycan array binding signal (z-score),GalNAc(b1-4)Gal(b1-4)Glc,0.8
same,glycan array binding signal (z-score),GalNAc(b1-4)GlcNAc,0.286
same,glycan array binding signal (z-score),[10],-0.504
same,glycan array binding signal (z-score),[11],6.98
same,glycan array binding signal (z-score),[12],-0.514
same,glycan array binding signal (z-score),GalNAc(b1-4)GlcNAc6S,-0.848
same,glycan array binding signal (z-score),GalNAc(b1-6)GalNAc,-0.667
same,glycan array binding signal (z-score),GalNAc3S(b1-4)GlcNAc,-0.668
same,glycan array binding signal (z-score),GalNAc3S(b1-4)GlcNAc3S,-0.564
same,glycan array binding signal (z-score),[13],-0.673
same,glycan array binding signal (z-score),GalNAc4S6S(b1-4)GlcNAc,0.198
same,glycan array binding signal (z-score),GalNAc6S(b1-4)GlcNAc,-0.814
same,glycan array binding signal (z-score),Glc(a1-4)Glc,0.782
same,glycan array binding signal (z-score),[14],-0.126
same,glycan array binding signal (z-score),Glc(a1-6)Glc(a1-6)Glc,-0.37
same,glycan array binding signal (z-score),[15],0.17

# Given as tab-separated lines: part of the list above
binder	measurement	setting	value
B1	glycan array binding signal (z-score)	Gal3S(b1-4)Glc	-0.046
same	glycan array binding signal (z-score)	Gal3S(b1-4)Glc6S	0.556
